Values quoted from earlier work, collected in patent publication US20070237815A1 (priority 2006, published 2007).
Some entries share one result that the patent states for a list of compounds.

Conditions: normal adult patients

In the case of `NS(=O)(=O)c1cc(C2(O)NC(=O)c3ccccc32)ccc1Cl` (stereo not shown) [chlorthalidone], the half-life is listed as 40 to 48 h.
